Legend:
Conditions in all cases: rate of corrosion from weight loss after 42 hours; test material 20 ppm, pH 8.5, 40° C., 15 ppm magnesium hardness, aerated, 150 rpm
[1] = Anticorrosive effect test, carbon steel
[2] = Anticorrosive effect test, cast iron
[3] = Anticorrosive effect test, copper
[4] = Anticorrosive effect test, tinning steel plate

SMILES | Anticorrosive effect (mpy) carbon steel [1] [mpy] | Anticorrosive effect (mpy) cast iron [2] [mpy] | Anticorrosive effect (mpy) copper [3] [mpy] | Anticorrosive effect (mpy) tinning steel [4] [mpy]
CC(C)(C)CC(C)(C)c1ccc(OCCOCC[N+](C)(C)Cc2ccccc2)cc1.[Cl-] [A, N-dimethyl-N-[p-(α,α,γ,γ)-tetramethylbutylphenoxy]ethoxy ethyl-N-benzyl chloride] | 7.2 | 6.5 | 0.5 | 0.5
CC(C)(C)CC(C)(C)c1ccc(OCCOCC[N+](C)(C)Cc2ccccc2)cc1.O=P([O-])(O)O [example 1, N-dimethyl-N-[p-(α,α,γ,γ)-tetramethylbutylphenoxy]ethoxy ethyl-N-benzyl ammonium phosphate] | 4.5 | 1.3 | 0.1 | 0.1

— patent publication US6399827B1, “Quaternary ammonium phosphate compound and method of preparing same” (SK Chemicals, priority 1997, dated 2002)
